Results are given in words; binding and its absence hold for the method and conditions named. Some results given as binding are weak or reduced against the parent protein; the word gives no strength.
Key:
[1] = target: Arabidopsis thaliana ETHE1 (AtETHE1), recombinant protein expressed in E. coli from pET24b-AtETHE1 (Arabidopsis thaliana) (UniProt Q9C8L4); test: gel filtration
[2] = target: Arabidopsis thaliana ETHE1 (AtETHE1), recombinant protein expressed in E. coli from pET24b-AtETHE1 (Arabidopsis thaliana) (UniProt Q9C8L4); test: gel filtration on Sephacryl column with protein standards
[3] = target: Arabidopsis thaliana ETHE1 (AtETHE1), recombinant protein expressed in E. coli from pET24b-AtETHE1 (Arabidopsis thaliana) (UniProt Q9C8L4); test: X-ray crystal structure, homodimer

binding [1]: binds | binding [2]: binds | binding [3]: binds
B1: Arabidopsis thaliana ETHE1 (AtETHE1), recombinant protein expressed in E. coli from pET24b-AtETHE1 (enzyme)
chain: MKLLFRQLFENESSTFTYLLADVSHPDKPALLIDPVDKTVDRDLKLIDELGLKLIYAMNTHVHADHVTGTGLLKTKLPGVKSVISKASGSKADLFLEPGDKVSIGDIYLEVRATPGHTAGCVTYVTGEGADQPQPRMAFTGDAVLIRGCGRTDFQEGSSDQLYESVHSQIFTLPKDTLIYPAHDYKGFEVSTVGEEMQHNPRLTKDKETFKTIMSNLNLSYPKMIDVAVPANMVCGLQDVPSQAN

— patent US20120291148A1, “TRANSGENIC PLANTS WITH ENHANCED CHARACTERISTICS” (Miami University, priority 2007, published 2012)
